{"source": "patent US20100190751A1", "about": "“NOVEL COMBINATION OF NERAMEXANE FOR TREATMENT OF NERORDEGENERATIE DISORDERS” (MERZ PHARMA GmbH & CO. KGaA, priority 2007, published 2010)", "tested_on": "SOD1(G93A) transgenic mouse model of ALS", "test": "Motor performance in the running wheel, SOD1(G93A) ALS mouse model", "type": "in vivo", "method": "Drug treatment starts at day 45.\nMemantine is supplied by MERZ pharmaceuticals. […] Drugs are dissolved in drinking water. […] Memantine is administered twice a day subcutaneously.\nConsumption of drinking water is checked randomly.\n4. Motor Performance in the running wheel", "data": [{"smiles": "Nc1nc2ccc(OC(F)(F)F)cc2s1", "note": "[Riluzole, 2-amino-6-trifluromethoxybenzothiazole]", "values": [{"measurement": "Half Maximum Performance", "setting": "both gender", "value": 103.9, "unit": "days"}, {"measurement": "Half Maximum Performance, Difference", "setting": "versus vehicle control 106.1", "value": -2.2, "unit": "days"}]}]}
